The other results are listed elsewhere or left out.
The sequences below were run against T1, OsSMF1 (Oryza sativa, UniProt Q6ZLB0 1-436) (assay: protein-binding microarray (RPBM); PBS, 2% BSA, 51.3 ng/ul salmon testes DNA, 50 uM zinc acetate, 200 nM TF, 25 C, 1 h; high values mean tight binding). Conditions: protein: recombinant; tags: N-terminal polyhistidine and DsRed monomer fusion (pET32a); chain copies: 2; label: CyDye5-dUTP incorporated in the synthesized complementary strand; 3' TTTTT single-stranded linker to array surface; dsDNA, one strand shown.
T1 sequence: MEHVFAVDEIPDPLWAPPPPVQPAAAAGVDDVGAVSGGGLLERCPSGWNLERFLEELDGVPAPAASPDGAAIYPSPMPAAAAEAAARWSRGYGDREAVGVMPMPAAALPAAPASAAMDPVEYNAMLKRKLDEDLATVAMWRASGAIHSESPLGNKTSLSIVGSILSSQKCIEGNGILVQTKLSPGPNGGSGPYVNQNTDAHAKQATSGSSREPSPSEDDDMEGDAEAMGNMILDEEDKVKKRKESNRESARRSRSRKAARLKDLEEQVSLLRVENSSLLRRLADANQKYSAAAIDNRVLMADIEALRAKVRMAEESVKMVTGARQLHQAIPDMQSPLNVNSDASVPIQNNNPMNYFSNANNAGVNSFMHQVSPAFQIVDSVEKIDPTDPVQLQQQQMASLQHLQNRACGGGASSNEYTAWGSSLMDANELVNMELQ
How it was run: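 An Axon 4000B scanner gave the binding signal as per-feature fluorescence intensity in arbitrary units. This followed washing of a custom Agilent array that had been incubated for 1 h at 25 °C with 200 nM protein in PBS, 2% BSA, salmon testes DNA and 50 µM zinc acetate. The proteins were transcription factors fused at the N-terminus to polyhistidine and DsRed, expressed in E. coli BL21-CodonPlus and purified on Ni–NTA.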
In the case of “TTTCTCAACTGCATAATCCTGTCATTCATGTTCTCGTGCACGGAGTCACCTAGTGCAG”, the binding signal is reported as 4410 fluorescence intensity (a.u.). For “CCCACGGCGGGCTCTGACGTGGATGTAGTCGGTCTTCTGGCGGAGTCACCTAGTGCAG”, the binding signal was 9860 fluorescence intensity (a.u.). In the case of “ACTTAATAAAATCAAACGTCACAGTTCCGTACTTTTCAGTCGGAGTCACCTAGTGCAG”, the binding signal is reported as 35900 fluorescence intensity (a.u.). “GATAATTTAAATCGCATCAATTAAGATACCATGTACGCATCGGAGTCACCTAGTGCAG” was tested, and the binding signal was 32700 fluorescence intensity (a.u.). In the case of “GAGGGGAGCAGGCTGTACATGCTGGATTACCACGACATCTCGGAGTCACCTAGTGCAG”, the binding signal is reported as 3510 fluorescence intensity (a.u.). In the case of “TATGTAATTAGTTTTGTAAGTAGTCTATATTTAATACTCTCGGAGTCACCTAGTGCAG”, the binding signal is reported as 22000 fluorescence intensity (a.u.). “CAGTGACTCCTCTCCTACGTAGGCGCCACGTCAGCAAAACCGGAGTCACCTAGTGCAG” was tested, and the binding signal was 20900 fluorescence intensity (a.u.). “GCTGACATCAGCATGATATCAGCGCCCGATTTCCCCGGCCCGGAGTCACCTAGTGCAG” was tested, and the binding signal was 11400 fluorescence intensity (a.u.). For “TTAACAAACACAAGAAAGACAAATACGAGTCCTTCGATAACGGAGTCACCTAGTGCAG”, the binding signal was 6520 fluorescence intensity (a.u.). “CGTCCACACACTCATGAATCATCGCTCACTCAAACAGCCTCGGAGTCACCTAGTGCAG” was tested, and the binding signal was 4180 fluorescence intensity (a.u.). For “TCTTCCTCCTCTTCTGCGTCGTCGACTTCGTCTCCGGCGGCGGAGTCACCTAGTGCAG”, the binding signal was 3620 fluorescence intensity (a.u.). For “TGGGGAAGGCTCCGGCGAGCCTCCGCGCGCGCCGCGCTGGCGGAGTCACCTAGTGCAG”, the binding signal was 3210 fluorescence intensity (a.u.). For “TTCTAGAAAACATCGTGTCATGCTAGTTTTGAGCAGAAGTCGGAGTCACCTAGTGCAG”, the binding signal was 3230 fluorescence intensity (a.u.). In the case of “TCCTCCTTTATACTAGGAAAGAACAGCCGACGTGGCGATCCGGAGTCACCTAGTGCAG”, the binding signal is reported as 17000 fluorescence intensity (a.u.). “AGCCGCACTCAAAACCCACGTACACCCCATGCCTTGCCTCCGGAGTCACCTAGTGCAG” was tested, and the binding signal was 4590 fluorescence intensity (a.u.). In the case of “GAGTAGCTTTGCTGATGATGCCATATACTAATATCTCCTTCGGAGTCACCTAGTGCAG”, the binding signal is reported as 3300 fluorescence intensity (a.u.). With “TAGGTATCATCTGACACCTCACAATTATCACCAAATTAGGCGGAGTCACCTAGTGCAG” the binding signal was 3500 fluorescence intensity (a.u.). “GACATTCAACTAGTACTGACAAAGAGGGTACACCACGTAGCGGAGTCACCTAGTGCAG” was tested, and the binding signal was 4010 fluorescence intensity (a.u.). With “ATACTACTAAACGAATGAAAATGGGTCATTTTGCCGCGCTCGGAGTCACCTAGTGCAG” the binding signal was 3860 fluorescence intensity (a.u.). For “CATTAGGTATTTCGACAGCATAGCAACTATACACAATATCCGGAGTCACCTAGTGCAG”, the binding signal was 3250 fluorescence intensity (a.u.). In the case of “AGCTAATTGCTACACTTTGACCTGTCATCAATCTTTGGATCGGAGTCACCTAGTGCAG”, the binding signal is reported as 5490 fluorescence intensity (a.u.). In the case of “CACATCGTTGCCAATGTTGCCACGTACCAAGGTCATATGGCGGAGTCACCTAGTGCAG”, the binding signal is reported as 9400 fluorescence intensity (a.u.). With “TTAACCTTTTCTTATTAAGGATCAGAAAGATATGGATAATCGGAGTCACCTAGTGCAG” the binding signal was 3500 fluorescence intensity (a.u.). “CCGTCGACCACGTTGATGCCGACGGTGGCTGACACATGACCGGAGTCACCTAGTGCAG” was tested, and the binding signal was 4960 fluorescence intensity (a.u.). With “GTGGGGCCCACAAGCAGAGACACGCACGCCAAGCATTAGTCGGAGTCACCTAGTGCAG” the binding signal was 4000 fluorescence intensity (a.u.). With “CTCTCGTCTTAACTTAATTCCTGCCAGAATGTGACGTGCACGGAGTCACCTAGTGCAG” the binding signal was 5240 fluorescence intensity (a.u.). With “GTCGAGCGGGCGAACATGATCTCGCGGGAGGGTGGGGTTGCGGAGTCACCTAGTGCAG” the binding signal was 4320 fluorescence intensity (a.u.). “AACTACTCCCTCTGTTCCATAATATAAGGGATTTTAACTTCGGAGTCACCTAGTGCAG” was tested, and the binding signal was 3670 fluorescence intensity (a.u.). For “TTAGGACCATGTCACTGCCGTCACGTTTTCCATCCATATCCGGAGTCACCTAGTGCAG”, the binding signal was 5680 fluorescence intensity (a.u.). In the case of “ATCCACCGCTGAGTCCCAGACGAGCGAGGGCCAGATCATCCGGAGTCACCTAGTGCAG”, the binding signal is reported as 3410 fluorescence intensity (a.u.). “ACCACCACCGCTTCCTCCTCCACGCCATTACTGCTCCTCACGGAGTCACCTAGTGCAG” was tested, and the binding signal was 5320 fluorescence intensity (a.u.). For “GCGAGACGAGCAGGACGGCGGCGGCGGCCACAAGTTCCGGCGGAGTCACCTAGTGCAG”, the binding signal was 3270 fluorescence intensity (a.u.). For “GGATGCTAGTGTTATCTAGTCAGGCTCTACAAAATTTCTACGGAGTCACCTAGTGCAG”, the binding signal was 3660 fluorescence intensity (a.u.). With “GCCTTTGCTCAATCCTGCAGAGAAGGGCAGAAGACGTCACCGGAGTCACCTAGTGCAG” the binding signal was 3390 fluorescence intensity (a.u.). “TCAAGAAGGAGTAGTCCTATCATATAATTGCTGATTCAGTCGGAGTCACCTAGTGCAG” was tested, and the binding signal was 4190 fluorescence intensity (a.u.). For “GCCCGTTGCTGTTGAGAGCTGATCTGTACCCCTCCTCAAGCGGAGTCACCTAGTGCAG”, the binding signal was 3780 fluorescence intensity (a.u.). In the case of “TACCATGTGACCGTGTGATGATCGATCGATGATCACCATTCGGAGTCACCTAGTGCAG”, the binding signal is reported as 3370 fluorescence intensity (a.u.). With “AGGCGGCATTTTATCAGCGATGTACCACTACTATTATTTGCGGAGTCACCTAGTGCAG” the binding signal was 17000 fluorescence intensity (a.u.). For “AAACATAACAATATTTTCAACATAAAACAAATAATGTTATCGGAGTCACCTAGTGCAG”, the binding signal was 3530 fluorescence intensity (a.u.). “GTGGCGCGGAATGTGTGTTGGCATGCTGACTTAGCCTCCCCGGAGTCACCTAGTGCAG” was tested, and the binding signal was 5880 fluorescence intensity (a.u.). “TCATTCTCCGACATCTATCGTCGCCGTCACCAACATCCTACGGAGTCACCTAGTGCAG” was tested, and the binding signal was 3930 fluorescence intensity (a.u.). With “CGGTTTACGAGGACGTGGTACACGTTTCATGTACACCGCACGGAGTCACCTAGTGCAG” the binding signal was 5100 fluorescence intensity (a.u.).

From article PMC7819943, “Rice protein-binding microarrays: a tool to detect cis-acting elements near promoter regions in rice”
